PubChem BioAssay AID1159508 | Drosophila RNAi Screening Center – 2015
This is an unselected part of 812 reagents tested. 18 of them (2.2%) count as active. 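Calls include both increased and decreased ATP; roughly one in four reagents has no third replicate value.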 Entries without a mark were called inactive. Reagents against one gene are numbered here. A plus sign joins genes that one reagent is predicted to hit. Not all columns of the deposit are shown. Not stated in the record: the amount of reagent.

Assay: 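Overall cell fitness after RNAi as a quality check of the library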
System: Drosophila S2R+ cells
Knock-down reagent: long dsRNA against Drosophila genes
Time to read-out: 5 days
Measurement: 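Luminescent ATP signal as a proxy for cell fitness after 5 days of RNAi, given as a z-score in each replicate and averaged over replicates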
Reading the numbers: mean ATP z-score and ATP z-score: higher = more total ATP luminescence
Hit rule: In these data the active calls have mean ATP z-score at about -2 or lower, or at about 2 or higher
Calls: active = strong ATP change (up or down); inactive = no strong ATP change

gene knocked down	reagent	mean ATP z-score	ATP z-score, replicate 1	ATP z-score, replicate 2
CG3045	1	0.0461	-0.477	-0.0674
CG3045	2	-0.303	-0.519	-0.297
Slbp	1	0.146	-0.409	-0.08
Slbp	2	0.0313	-0.428	0.149
Rrp40	1	0.63	0.414	0.484
Rrp40	2	0.581	0.296	0.361
CG9004	1	0.123	-0.174	0.09
CG9004	2	0.238	0.124	0.242
Pep	1	2.38 (active)	0.471	2.15
Pep	2	-0.244	-0.341	-0.325
snRNP-U1-70K	1	1.79	1.43	1.92
snRNP-U1-70K	2	2.05 (active)	1.86	1.99
WDR79	1	-0.808	-0.999	-0.514
WDR79	2	-0.163	-0.275	-0.0293
CG14414	1	-0.569	-0.629	-0.539
CG14414	2	-0.0998	-0.987	0.801
CG10948	1	0.471	0.0559	0.547
CG10948	2	-0.333	-0.404	-0.219
fus	1	0.673	0.589	0.645
fus	2	0.126	-0.484	-0.289
mEFTu1	1	-0.28	-0.668	-0.0877
mEFTu1	2	-0.595	-0.742	-0.372
Rbp6	1	-0.514	-0.579	-0.382
Rbp6	2	-0.0701	-0.631	0.183
CG10466	1	0.282	0.0384	0.306
CG10466	2	-0.333	-0.628	-0.312
CG4021	1	-0.593	-0.869	-0.601
CG4021	2	-0.0539	-0.26	-0.0317
anox + SLIRP1	1	-1.08	-1.54	-0.816
anox + SLIRP1	2	-0.374	-0.683	-0.226
CG12493	1	0.205	-0.221	0.376
CG12493	2	0.322	0.131	0.288
lost	1	-0.146	-0.49	-0.292
lost	2	-0.313	-0.511	-0.0754
HBS1	1	-0.134	-0.291	0.04
HBS1	2	1.53	0.816	1.62
Isha	1	-0.478	-0.688	-0.486
Isha	2	-0.579	-0.685	-0.649
SF2	1	0.597	0.229	0.647
SF2	2	0.173	-0.285	0.295
Csl4	1	0.887	0.786	0.874
Csl4	2	-0.903	-1.02	-0.823
eIF3l	1	-0.404	-0.559	-0.554
eIF3l	2	-0.636	-0.682	-0.563
NiPp1	1	-0.171	-0.344	-0.211
NiPp1	2	-0.0565	-0.441	0.335
Nop60B	1	-0.972	-0.95	-0.92
Nop60B	2	0.0861	-0.0616	-0.0367
CG30122	1	-0.644	-1.37	-0.558
CG30122	2	0.222	-0.511	0.544
bru1	1	0.0801	-0.715	0.41
bru1	2	-0.105	-0.201	-0.0802
CG6961 + CG18259	1	0.641	0.31	0.425
CG6961 + CG18259	2	-0.58	-0.738	-0.607
U2A	1	-1.05	-1.27	-0.698
U2A	2	0.763	-0.165	0.854
hrg	1	-0.152	-0.209	-0.16
hrg	2	1.41	1.19	1.44
Unr	1	-0.551	-0.674	-0.583
Unr	2	0.496	0.237	0.69

10 entries from above, reformatted:
Csl4 #2: mean ATP z-score = -0.903; ATP z-score, replicate 1 = -1.02; ATP z-score, replicate 2 = -0.823
eIF3l #1: mean ATP z-score = -0.404; ATP z-score, replicate 1 = -0.559; ATP z-score, replicate 2 = -0.554
eIF3l #2: mean ATP z-score = -0.636; ATP z-score, replicate 1 = -0.682; ATP z-score, replicate 2 = -0.563
NiPp1 #1: mean ATP z-score = -0.171; ATP z-score, replicate 1 = -0.344; ATP z-score, replicate 2 = -0.211
NiPp1 #2: mean ATP z-score = -0.0565; ATP z-score, replicate 1 = -0.441; ATP z-score, replicate 2 = 0.335
Nop60B #1: mean ATP z-score = -0.972; ATP z-score, replicate 1 = -0.95; ATP z-score, replicate 2 = -0.92
Nop60B #2: mean ATP z-score = 0.0861; ATP z-score, replicate 1 = -0.0616; ATP z-score, replicate 2 = -0.0367
CG30122 #1: mean ATP z-score = -0.644; ATP z-score, replicate 1 = -1.37; ATP z-score, replicate 2 = -0.558
CG30122 #2: mean ATP z-score = 0.222; ATP z-score, replicate 1 = -0.511; ATP z-score, replicate 2 = 0.544
bru1 #1: mean ATP z-score = 0.0801; ATP z-score, replicate 1 = -0.715; ATP z-score, replicate 2 = 0.41
